The supplement of paper PMC10849652
Some of the results follow.

By UniProt entry, the sequences of proteins in these tests, tags left out. Where a name states a change or a piece, a line headed by the entry shows the natural chain unless it says otherwise.
UniProt P02724: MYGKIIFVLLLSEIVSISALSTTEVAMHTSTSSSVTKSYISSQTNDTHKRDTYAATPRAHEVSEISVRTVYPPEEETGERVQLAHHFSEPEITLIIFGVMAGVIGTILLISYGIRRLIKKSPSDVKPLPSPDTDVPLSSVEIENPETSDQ
UniProt Q9BX10: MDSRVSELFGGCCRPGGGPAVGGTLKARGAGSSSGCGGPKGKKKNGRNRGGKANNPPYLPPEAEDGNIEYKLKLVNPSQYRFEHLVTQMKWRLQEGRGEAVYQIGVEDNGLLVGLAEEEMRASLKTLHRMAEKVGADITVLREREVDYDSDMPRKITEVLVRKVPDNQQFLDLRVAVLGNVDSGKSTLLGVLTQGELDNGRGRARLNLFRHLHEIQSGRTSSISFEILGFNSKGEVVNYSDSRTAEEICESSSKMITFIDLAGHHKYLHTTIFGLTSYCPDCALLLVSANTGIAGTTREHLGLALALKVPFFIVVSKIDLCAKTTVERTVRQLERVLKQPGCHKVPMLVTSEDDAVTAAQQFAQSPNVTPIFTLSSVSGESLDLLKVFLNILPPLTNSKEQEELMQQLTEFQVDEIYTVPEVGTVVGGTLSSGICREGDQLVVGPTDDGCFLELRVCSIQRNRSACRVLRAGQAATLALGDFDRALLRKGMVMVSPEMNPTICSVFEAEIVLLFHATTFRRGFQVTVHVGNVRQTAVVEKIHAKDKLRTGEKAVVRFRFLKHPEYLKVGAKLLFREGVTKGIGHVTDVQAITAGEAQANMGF
UniProt Q13322: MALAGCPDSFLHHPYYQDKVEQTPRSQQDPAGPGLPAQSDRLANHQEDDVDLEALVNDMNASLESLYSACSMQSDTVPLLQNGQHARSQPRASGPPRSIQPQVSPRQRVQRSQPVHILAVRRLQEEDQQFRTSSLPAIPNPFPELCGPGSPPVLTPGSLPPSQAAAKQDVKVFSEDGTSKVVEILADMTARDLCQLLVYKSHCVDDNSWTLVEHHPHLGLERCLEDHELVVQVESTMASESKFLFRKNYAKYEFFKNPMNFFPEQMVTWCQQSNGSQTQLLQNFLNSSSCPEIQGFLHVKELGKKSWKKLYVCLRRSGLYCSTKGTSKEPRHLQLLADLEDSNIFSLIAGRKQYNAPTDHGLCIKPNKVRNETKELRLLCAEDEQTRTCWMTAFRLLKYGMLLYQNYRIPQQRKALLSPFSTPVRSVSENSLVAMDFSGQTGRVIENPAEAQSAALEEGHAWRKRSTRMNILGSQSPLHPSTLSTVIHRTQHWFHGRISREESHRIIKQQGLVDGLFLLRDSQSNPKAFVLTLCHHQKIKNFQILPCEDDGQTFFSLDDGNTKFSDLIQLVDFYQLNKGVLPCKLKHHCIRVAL
UniProt Q9BXW7: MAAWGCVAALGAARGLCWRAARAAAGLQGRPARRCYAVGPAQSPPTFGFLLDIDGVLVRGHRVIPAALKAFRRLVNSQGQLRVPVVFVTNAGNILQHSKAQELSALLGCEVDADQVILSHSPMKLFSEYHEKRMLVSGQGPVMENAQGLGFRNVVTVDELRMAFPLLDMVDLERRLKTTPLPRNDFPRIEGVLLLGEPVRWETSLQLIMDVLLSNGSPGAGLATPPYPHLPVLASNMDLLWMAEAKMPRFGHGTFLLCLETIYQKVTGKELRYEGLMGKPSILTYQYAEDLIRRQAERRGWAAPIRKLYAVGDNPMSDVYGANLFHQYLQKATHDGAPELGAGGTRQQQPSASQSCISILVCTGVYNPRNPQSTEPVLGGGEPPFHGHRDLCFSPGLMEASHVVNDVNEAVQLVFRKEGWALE
UniProt Q7Z4V5: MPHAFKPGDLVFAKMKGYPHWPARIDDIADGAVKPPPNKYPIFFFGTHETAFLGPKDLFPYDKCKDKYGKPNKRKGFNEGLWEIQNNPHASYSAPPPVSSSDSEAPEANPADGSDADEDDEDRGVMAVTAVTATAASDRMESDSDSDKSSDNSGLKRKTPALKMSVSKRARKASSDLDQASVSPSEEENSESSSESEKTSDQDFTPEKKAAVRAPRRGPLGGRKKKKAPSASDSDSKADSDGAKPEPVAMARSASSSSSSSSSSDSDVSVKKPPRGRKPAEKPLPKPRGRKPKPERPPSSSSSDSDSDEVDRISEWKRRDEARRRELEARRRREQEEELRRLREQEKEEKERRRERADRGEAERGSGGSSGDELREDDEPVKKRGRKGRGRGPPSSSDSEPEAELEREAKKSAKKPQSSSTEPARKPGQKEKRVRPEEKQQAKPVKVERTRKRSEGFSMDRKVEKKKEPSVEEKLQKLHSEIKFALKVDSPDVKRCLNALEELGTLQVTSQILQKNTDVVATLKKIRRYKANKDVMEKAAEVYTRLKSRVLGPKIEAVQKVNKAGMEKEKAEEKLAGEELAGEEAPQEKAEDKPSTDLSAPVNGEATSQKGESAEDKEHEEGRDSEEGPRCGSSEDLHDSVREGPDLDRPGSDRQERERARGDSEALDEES
UniProt Q8WW33: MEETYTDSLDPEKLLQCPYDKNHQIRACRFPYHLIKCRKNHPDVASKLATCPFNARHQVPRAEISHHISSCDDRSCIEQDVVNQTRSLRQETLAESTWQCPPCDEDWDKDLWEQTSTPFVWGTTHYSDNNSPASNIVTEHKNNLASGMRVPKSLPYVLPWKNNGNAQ
UniProt Q92522: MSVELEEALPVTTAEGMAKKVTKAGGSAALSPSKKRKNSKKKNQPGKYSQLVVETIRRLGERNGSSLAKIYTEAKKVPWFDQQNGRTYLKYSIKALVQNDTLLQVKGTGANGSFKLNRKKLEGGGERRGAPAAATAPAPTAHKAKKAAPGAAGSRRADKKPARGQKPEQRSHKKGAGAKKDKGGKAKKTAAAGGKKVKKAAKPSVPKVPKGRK
UniProt Q969F1: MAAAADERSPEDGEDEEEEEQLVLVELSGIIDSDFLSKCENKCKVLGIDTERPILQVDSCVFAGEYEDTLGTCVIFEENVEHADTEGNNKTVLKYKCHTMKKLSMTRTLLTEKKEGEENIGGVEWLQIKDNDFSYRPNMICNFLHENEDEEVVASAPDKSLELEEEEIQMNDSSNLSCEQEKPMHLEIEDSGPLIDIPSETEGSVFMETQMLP
UniProt Q9Y5Q9: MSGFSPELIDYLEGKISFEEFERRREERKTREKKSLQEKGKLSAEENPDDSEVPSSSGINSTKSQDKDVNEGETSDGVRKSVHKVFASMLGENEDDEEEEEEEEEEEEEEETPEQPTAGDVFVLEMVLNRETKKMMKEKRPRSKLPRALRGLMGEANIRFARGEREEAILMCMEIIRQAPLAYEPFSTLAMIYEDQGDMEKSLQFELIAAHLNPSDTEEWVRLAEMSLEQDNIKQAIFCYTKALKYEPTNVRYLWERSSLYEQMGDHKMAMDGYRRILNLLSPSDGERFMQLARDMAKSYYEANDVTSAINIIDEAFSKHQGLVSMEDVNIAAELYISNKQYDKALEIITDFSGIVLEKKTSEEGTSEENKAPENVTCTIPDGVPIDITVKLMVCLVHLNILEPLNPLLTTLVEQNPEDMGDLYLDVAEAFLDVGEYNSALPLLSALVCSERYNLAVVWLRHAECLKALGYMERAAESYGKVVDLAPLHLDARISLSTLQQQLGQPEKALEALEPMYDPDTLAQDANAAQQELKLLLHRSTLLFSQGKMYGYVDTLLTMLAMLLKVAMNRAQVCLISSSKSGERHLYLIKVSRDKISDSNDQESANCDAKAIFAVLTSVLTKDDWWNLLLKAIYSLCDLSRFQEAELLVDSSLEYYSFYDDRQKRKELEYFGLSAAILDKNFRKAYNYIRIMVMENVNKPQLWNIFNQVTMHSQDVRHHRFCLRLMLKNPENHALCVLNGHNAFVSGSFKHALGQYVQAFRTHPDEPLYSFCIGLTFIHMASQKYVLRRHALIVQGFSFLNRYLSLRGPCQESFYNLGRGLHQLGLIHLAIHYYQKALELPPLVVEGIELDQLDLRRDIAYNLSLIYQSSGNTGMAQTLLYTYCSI
UniProt P48637: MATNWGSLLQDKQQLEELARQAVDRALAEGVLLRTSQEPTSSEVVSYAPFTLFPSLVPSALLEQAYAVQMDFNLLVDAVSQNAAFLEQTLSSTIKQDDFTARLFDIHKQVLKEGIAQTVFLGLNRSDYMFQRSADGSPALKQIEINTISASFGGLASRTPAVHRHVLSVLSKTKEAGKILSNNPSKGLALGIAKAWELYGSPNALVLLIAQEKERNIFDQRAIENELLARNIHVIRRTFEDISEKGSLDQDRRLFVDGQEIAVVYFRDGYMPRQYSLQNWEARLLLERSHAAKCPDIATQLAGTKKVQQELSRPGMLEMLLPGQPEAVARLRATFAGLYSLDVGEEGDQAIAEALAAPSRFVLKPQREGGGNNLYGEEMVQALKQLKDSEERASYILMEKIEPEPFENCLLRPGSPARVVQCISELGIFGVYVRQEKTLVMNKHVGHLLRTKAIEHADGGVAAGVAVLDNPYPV
UniProt Q92664: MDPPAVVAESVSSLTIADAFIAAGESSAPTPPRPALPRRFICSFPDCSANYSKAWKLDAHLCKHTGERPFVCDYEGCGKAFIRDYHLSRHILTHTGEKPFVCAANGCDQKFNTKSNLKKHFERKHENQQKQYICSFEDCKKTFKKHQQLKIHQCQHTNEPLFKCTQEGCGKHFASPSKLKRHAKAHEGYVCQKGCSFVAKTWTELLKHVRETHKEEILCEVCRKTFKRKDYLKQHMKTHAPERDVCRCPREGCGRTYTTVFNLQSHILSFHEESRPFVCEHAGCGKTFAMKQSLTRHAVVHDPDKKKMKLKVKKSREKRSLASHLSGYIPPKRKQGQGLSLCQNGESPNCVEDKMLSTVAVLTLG
UniProt P35269, whole entry, looked up: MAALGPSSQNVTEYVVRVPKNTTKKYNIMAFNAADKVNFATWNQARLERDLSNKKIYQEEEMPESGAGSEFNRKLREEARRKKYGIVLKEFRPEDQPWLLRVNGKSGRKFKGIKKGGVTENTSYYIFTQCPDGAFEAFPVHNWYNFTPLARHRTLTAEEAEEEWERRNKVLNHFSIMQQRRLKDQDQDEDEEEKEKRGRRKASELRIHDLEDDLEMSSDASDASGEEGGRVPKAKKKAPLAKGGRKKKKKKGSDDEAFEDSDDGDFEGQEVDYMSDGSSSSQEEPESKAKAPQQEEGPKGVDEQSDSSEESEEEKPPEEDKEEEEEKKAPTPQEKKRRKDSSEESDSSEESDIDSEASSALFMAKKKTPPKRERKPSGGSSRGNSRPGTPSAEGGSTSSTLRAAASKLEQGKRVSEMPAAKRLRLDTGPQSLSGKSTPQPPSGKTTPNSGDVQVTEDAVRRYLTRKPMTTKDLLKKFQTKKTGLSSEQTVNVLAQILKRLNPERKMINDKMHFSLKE
UniProt O00178: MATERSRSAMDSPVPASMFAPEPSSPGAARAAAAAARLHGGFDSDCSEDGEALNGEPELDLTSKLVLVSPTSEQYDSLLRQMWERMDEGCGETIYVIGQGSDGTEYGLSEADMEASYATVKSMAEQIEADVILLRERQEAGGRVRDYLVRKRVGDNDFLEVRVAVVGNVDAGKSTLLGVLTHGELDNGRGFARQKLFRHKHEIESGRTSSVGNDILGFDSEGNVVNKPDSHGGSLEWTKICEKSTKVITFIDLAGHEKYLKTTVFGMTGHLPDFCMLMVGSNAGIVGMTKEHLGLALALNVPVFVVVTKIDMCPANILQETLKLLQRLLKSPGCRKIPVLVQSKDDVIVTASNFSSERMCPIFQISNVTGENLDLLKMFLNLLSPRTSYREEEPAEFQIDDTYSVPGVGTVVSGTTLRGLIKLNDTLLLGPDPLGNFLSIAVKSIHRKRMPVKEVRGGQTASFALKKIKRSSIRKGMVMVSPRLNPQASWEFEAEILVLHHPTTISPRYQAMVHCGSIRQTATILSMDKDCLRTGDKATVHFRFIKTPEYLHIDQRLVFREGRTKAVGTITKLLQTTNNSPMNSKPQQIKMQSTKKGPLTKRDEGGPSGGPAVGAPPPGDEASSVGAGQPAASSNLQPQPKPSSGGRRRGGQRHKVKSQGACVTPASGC
UniProt P32780: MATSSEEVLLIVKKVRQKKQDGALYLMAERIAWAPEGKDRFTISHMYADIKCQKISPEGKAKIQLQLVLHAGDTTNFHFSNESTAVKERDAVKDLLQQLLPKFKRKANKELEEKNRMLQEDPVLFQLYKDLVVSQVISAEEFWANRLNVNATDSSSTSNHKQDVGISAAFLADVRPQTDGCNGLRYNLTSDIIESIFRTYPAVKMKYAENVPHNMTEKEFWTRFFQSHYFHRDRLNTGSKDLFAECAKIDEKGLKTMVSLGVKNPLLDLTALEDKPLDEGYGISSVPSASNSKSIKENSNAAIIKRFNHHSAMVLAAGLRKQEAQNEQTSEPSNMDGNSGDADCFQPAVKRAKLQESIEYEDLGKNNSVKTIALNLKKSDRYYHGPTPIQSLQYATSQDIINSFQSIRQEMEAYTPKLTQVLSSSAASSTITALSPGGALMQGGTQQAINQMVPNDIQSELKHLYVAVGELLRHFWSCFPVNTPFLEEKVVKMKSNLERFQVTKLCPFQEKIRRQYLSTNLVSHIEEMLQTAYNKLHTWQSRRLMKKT

Each target was assayed with CC1=C(C=C(C=C1)NC(=O)C2=CC(=CC=C2)C(C)(C)C#N)NC3=CC4=C(C=C3)N=CN(C4=O)C (assay: log2 fold change, soluble protein after heating vs DMSO (PISA); higher = thermal stabilisation; K562 lysate, 10 uM; active = over 0.2 and 3.5 SD of the protein, either way, in both replicates (recomputed)).
Procedure, shortened: (§1)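 Soluble protein was defined as the supernatant remaining after 21,000xg for 90 min, following pooling of heated aliquots and adjustment to 0.5% NP-40 at 4°C. Before that, crude K562 extract at 1 mg/mL protein in PBS pH 7.4 with 1 mM MgCl2 was treated with 10 μM compound for 30 min and heated for 3 min across 48°C-58°C. Quantification used TMTpro 16plex LC-MS/MS with channel sums equalised, and values are log-two fold changes in thermal stability relative to solvent controls from duplicates.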

Target	log2 fold change
GYPA (UniProt P02724)	inactive: 0.018
GTPBP2 (UniProt Q9BX10)	inactive: 0
HDAC7 isoform 5 (UniProt Q8WUI4)	inactive: -0.005
H1-2 (UniProt P16403)	inactive: -0.008
GRB10 (UniProt Q13322)	inactive: -0.032
GSTM4 (UniProt Q03013)	inactive: -0.136
HDHD5 (UniProt Q9BXW7)	inactive: -0.007
HAUS7 isoform 2 (UniProt Q99871)	inactive: -0.031
HDGFL2 isoform 2 (UniProt Q7Z4V5)	inactive: 0.022
GTSF1 (UniProt Q8WW33)	inactive: 0.065
H1FX (UniProt Q92522)	inactive: 0.011
GUF1 (UniProt Q8N442)	inactive: -0.085
GTF3C6 (UniProt Q969F1)	inactive: 0.054
GTF3C3 (UniProt Q9Y5Q9)	inactive: 0.014
GSTM3 (UniProt P21266)	inactive: 0.045
HAT1 (UniProt O14929)	inactive: 0.022
GRSF1 (UniProt Q12849)	inactive: 0.016
GSS (UniProt P48637)	inactive: -0.023
HBD (UniProt P02042)	inactive: 0.081
HDAC4 (UniProt P56524)	inactive: -0.007
GTF3A (UniProt Q92664)	inactive: 0.117
GTPBP4 (UniProt Q9BZE4)	inactive: 0
GRHPR (UniProt Q9UBQ7)	inactive: -0.002
HDAC2 (UniProt Q92769)	inactive: -0.025
GSTZ1 (UniProt G3V4T6)	inactive: -0.02
GTF2F1 (UniProt P35269)	inactive: 0.01
HBE1 (UniProt P02100)	inactive: 0.063
HADHA (UniProt P40939)	inactive: 0.055
GTPBP1 (UniProt O00178)	inactive: 0.028
GTF2H1 (UniProt P32780)	inactive: 0.001

What follows are targets tested with CC1=C(C=C(C=C1)NC(=O)C2=CC(=CC=C2)N(C)C)NC(=O)C3=CC=C(C=C3)O in the same assay as above.
Procedure, shortened: as §1

Target	log2 fold change
GYPA (UniProt P02724)	inactive: -0.037
GTPBP2 (UniProt Q9BX10)	inactive: 0.047
HDAC7 isoform 5 (UniProt Q8WUI4)	inactive: -0.022
H1-2 (UniProt P16403)	inactive: 0.004
GRB10 (UniProt Q13322)	inactive: -0.006
GSTM4 (UniProt Q03013)	inactive: -0.027
HDHD5 (UniProt Q9BXW7)	inactive: 0.024
GYG2 (UniProt O15488)	inactive: -0.052
HAUS7 isoform 2 (UniProt Q99871)	inactive: 0.021
HDGFL2 isoform 2 (UniProt Q7Z4V5)	inactive: 0.021
GSTM2 (UniProt P28161)	inactive: 0.004
GTSF1 (UniProt Q8WW33)	inactive: -0.043
H1FX (UniProt Q92522)	inactive: -0.021
GUF1 (UniProt Q8N442)	inactive: 0.045
GTF3C6 (UniProt Q969F1)	inactive: 0.023
GTF3C3 (UniProt Q9Y5Q9)	inactive: 0.047

Target	log2 fold change
GSTM3 (UniProt P21266)	inactive: -0.022
HAT1 (UniProt O14929)	inactive: 0.014
GRSF1 (UniProt Q12849)	inactive: 0.004
GSS (UniProt P48637)	inactive: -0.028
HBD (UniProt P02042)	inactive: 0.008
HDAC4 (UniProt P56524)	inactive: -0.056
GTF3A (UniProt Q92664)	inactive: -0.037
GTPBP4 (UniProt Q9BZE4)	inactive: 0.023
GRHPR (UniProt Q9UBQ7)	inactive: 0.012
HDAC2 (UniProt Q92769)	inactive: -0.016
GSTZ1 (UniProt G3V4T6)	inactive: -0.003
GTF2F1 (UniProt P35269)	inactive: -0.02
HBE1 (UniProt P02100)	inactive: -0.016
HADHA (UniProt P40939)	inactive: -0.033
GTPBP1 (UniProt O00178)	inactive: 0.001
GTF2H1 (UniProt P32780)	inactive: 0.054

These targets were tested with CC1=CC=C(C=C1)SC2=C3C=C(SC3=CN=C2)C(=O)N in the same assay as above.
Procedure, shortened: as §1

Target	log2 fold change
GYPA (UniProt P02724)	inactive: -0.034
GTPBP2 (UniProt Q9BX10)	inactive: -0.032
HDAC7 isoform 5 (UniProt Q8WUI4)	inactive: 0.015
H1-2 (UniProt P16403)	inactive: -0.017
GRB10 (UniProt Q13322)	inactive: 0.066
GSTM4 (UniProt Q03013)	inactive: 0.042
HDHD5 (UniProt Q9BXW7)	inactive: -0.001
GYG2 (UniProt O15488)	inactive: -0.01
HAUS7 isoform 2 (UniProt Q99871)	inactive: -0.054
HDGFL2 isoform 2 (UniProt Q7Z4V5)	inactive: -0.044
GSTM2 (UniProt P28161)	inactive: -0.021
GTSF1 (UniProt Q8WW33)	inactive: -0.023
H1FX (UniProt Q92522)	inactive: 0.014
GUF1 (UniProt Q8N442)	inactive: 0.115
GTF3C6 (UniProt Q969F1)	inactive: -0.036
GTF3C3 (UniProt Q9Y5Q9)	inactive: -0.007

Target	log2 fold change
GSTM3 (UniProt P21266)	inactive: 0.072
HAT1 (UniProt O14929)	inactive: -0.028
GRSF1 (UniProt Q12849)	inactive: -0.005
GSS (UniProt P48637)	inactive: -0.029
HBD (UniProt P02042)	inactive: 0.07
HDAC4 (UniProt P56524)	inactive: -0.073
GTF3A (UniProt Q92664)	inactive: 0.038
GTPBP4 (UniProt Q9BZE4)	inactive: 0.02
GRHPR (UniProt Q9UBQ7)	inactive: 0.019
HDAC2 (UniProt Q92769)	inactive: -0.013
GSTZ1 (UniProt G3V4T6)	inactive: -0.016
GTF2F1 (UniProt P35269)	inactive: -0.012
HBE1 (UniProt P02100)	inactive: 0.043
HADHA (UniProt P40939)	inactive: 0.077
GTPBP1 (UniProt O00178)	inactive: 0.007
GTF2H1 (UniProt P32780)	inactive: 0.015
